# Percent effect of library compounds

Measurements from “University of Dundee, Small-Polar-MMV Screening Library” (2021), ChEMBL document CHEMBL3988442.

Results are given as percent effect.
The record does not define 0% and 100%; most values in the screen are far below 50% and negative numbers occur (in some assays of this library far below -100).
Compounds were drawn at random from those tested, without regard to their results.

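Assay of Toxoplasma gondii numbers, read through their beta-galactosidase reporter with a colour substrate. Compounds at 50 µM. Higher reads as fewer parasites (inferred from which compounds were picked for retests). About 18,000 compounds were tested under these conditions; 0.94% (about 170) showed 50% or more at least once.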

| # | Compound | percent effect |
|---|---|---|
| 1 | `CC(C)COCCN(C)CC1CCS(=O)(=O)C1` (centres undefined) | 0.3302 |
| 2 | `COCCC1(CO)CCCN(CCS(C)(=O)=O)C1` (centres undefined) | -4.35 |
| 3 | `COC1CCN(C(=O)Nc2ccccc2)CC1` | 25.13 |
| 4 | `FC(F)(F)c1ccc(NCCNCc2cc[nH]n2)nc1` | -15.73 |
| 5 | `O=C(c1ccncc1)N1CCOc2ccccc21` | -11.62 |
| 6 | `NS(=O)(=O)N1CCCC1C(=O)NC1CC1` (centres undefined) | 20.36 |
| 7 | `N#Cc1ncn(CC(N)=O)n1` | -4.702 |
| 8 | `O=C(Cc1cccc(O)c1)NCCN1CC=CC1` | -7.848 |
| 9 | `Cc1cc(C(F)F)nn1CC(=O)N1CCSCC1` | -30.49 |
| 10 | `COc1ccc(CNC(=O)C2(C)CCNCC2)cc1` | -2.11 |
| 11 | `Cn1ccc2ccnc(N3CCC(C(N)=O)CC3)c21` | 1.79 |
| 12 | `Nc1ccc(CN2CCCCC2)cn1` | -37.84 |
| 13 | `CN1CCC(CNC(=O)COc2cccnc2)C1` (centres undefined) | -15.97 |
| 14 | `CSCC(CCO)Nc1nnnn1-c1ccc(C)cc1` (centres undefined) | 16.22 |
| 15 | `Cc1nsc(NC(=O)N2CCCC(CN)C2)n1` (centres undefined) | -12.83 |
| 16 | `CCN(CC)CCOC1CCNC1` (centres undefined) | 16.27 |
| 17 | `CC(=O)c1ccc(NC(=O)c2ncoc2C)nc1` | -5.677 |
| 18 | `FC(F)(F)CC1CNCCO1` (centres undefined) | 5.033 |
| 19 | `COc1cc(CNC(=O)NCC(F)(F)F)ccn1` | -11.64 |
| 20 | `O=S(=O)(Cc1ccncc1)Cc1cccc(Cl)c1` | -30.48 |
| 21 | `c1nnc(C2CC2)n1C1CCNCC1` | -12.51 |
| 22 | `CC(C)NC(=O)NCC12CCCC=C1NC(=O)CC2` (centres undefined) | -26.64 |
| 23 | `COc1ccc(CCC(=O)NC2CCN(C)CC2)cc1` | 7.705 |
| 24 | `CCS(=O)(=O)c1cccc(S(=O)(=O)N2CC[C@H](N)C2)c1` | 5.751 |
| 25 | `CC(Oc1ccccc1)C(=O)NC1CCN(C)CC1` (centres undefined) | -15.1 |
| 26 | `COc1ccc([C@@H]2C[C@H]2N)cc1` | 24.78 |
| 27 | `N#CCc1c[nH]c2ccc(C(N)=O)cc12` | 0.433 |
| 28 | `CCN1CCN(CCOc2ccc(C#N)cc2)CC1` | 5.832 |
| 29 | `COCC(=O)Nc1ccc2c(c1)CCC2` | -15.69 |
| 30 | `CC(C)(NCCCO)c1nccs1` | 4.213 |
| 31 | `O=C(CSCCN1CCCCC1)Nc1ccccn1` | -4.314 |
| 32 | `CCN(CCC(=O)OC)Cc1cccc2c1OCO2` | -3.574 |
| 33 | `O=C(CC1CCCC1)NCCc1noc(CO)n1` | 66.39 |
| 34 | `O=C1COCC2(CC2)N1` | -11.19 |
| 35 | `Cc1noc(OCC(=O)Nc2ccccc2)n1` | 23.38 |
| 36 | `COc1ccc(C(C)N)cc1OC` (centres undefined) | -0.3376 |
| 37 | `CN(Cc1c(F)cccc1Cl)C(=O)CNC(=O)C1CC1` | -14.73 |
| 38 | `CN1C(=O)CC(Nc2ccc3c(c2)CCC3)C1=O` (centres undefined) | -3.238 |
| 39 | `Cn1c(CNC(=O)Nc2nccs2)nnc1C1CC1` | -3.466 |
| 40 | `CC(C)c1cc(C(=O)NCC2CCC(=O)N2C)n(C)n1` (centres undefined) | -14.98 |
| 41 | `CN(C)C(=O)CNC(=O)c1cncc2ccccc12` | -10.4 |
| 42 | `Cc1noc(CN(C)Cc2cncn2C(C)C)n1` | -12.13 |
| 43 | `CC(CO)NC(=O)c1nn(C)cc1N` (centres undefined) | 11.1 |
| 44 | `Cc1nn(C)c(C)c1CCC(=O)NC(CCO)C1CC1` (centres undefined) | -9.029 |
| 45 | `CN(C)C(=O)C(C)(C)NCC(O)c1ccc(F)c(F)c1` (centres undefined) | 11.19 |
| 46 | `CN(C)Cc1ccccc1CNC(=O)C1CC1` | 0.2789 |
| 47 | `COc1ccc(C(=O)N2CCc3ccccc3C2)nn1` | -3.516 |
| 48 | `Cc1cn(CC(=O)N2CCOCC(O)C2)c(=O)[nH]c1=O` (centres undefined) | -12.1 |
| 49 | `Cc1cc(NC(=O)NCCN(C)C)no1` | 0.3677 |
| 50 | `CSCCC(CO)NC(=O)c1occc1C(C)C` (centres undefined) | 17.48 |
| 51 | `COCc1ccccc1CNS(=O)(=O)N1CCOCC1` | 10.88 |
| 52 | `Cc1ccnc(NCC2CCN(CCS(C)(=O)=O)C2)c1` (centres undefined) | -6.398 |
| 53 | `CN(CCOc1ccc(Cl)cc1)C(=O)C(C)(C)CN` | 40.77 |
| 54 | `CCC(Oc1ccccc1C)C(=O)NN1CCOCC1` (centres undefined) | -6.422 |
| 55 | `CC(c1ccncn1)N(C)C(=O)Cc1ccccn1` (centres undefined) | -3.25 |
| 56 | `N#CCCNCC1COc2ccccc2O1` (centres undefined) | -9.86 |
| 57 | `CC(C)Oc1cc(CN)ccn1` | -3.976 |
| 58 | `COC(=O)c1ccc(CSc2n[nH]c(=O)n2C)o1` | -29.7 |
| 59 | `CCC(C)(C)NC(=O)c1ccccc1S(=O)(=O)CC` | 1.272 |
| 60 | `COCC(=O)N1CCCCCC1C1CCNCC1` (centres undefined) | -2.687 |
| 61 | `CCS(=O)(=O)N(C)C1CCN(c2nc(C)ns2)CC1` | -2.104 |
| 62 | `CCOCCNC(=O)Nc1ccncc1C` | -9.961 |
| 63 | `CCC(C)N(C)CCNC(=O)NC1CC1` (centres undefined) | -6.655 |
| 64 | `CC(CN)CNC(=O)OC(C)(C)C` (centres undefined) | -2.332 |
| 65 | `CC(C)NC1CCOCC1` | -6.448 |
| 66 | `N#Cc1ccc(CN2CCNCC2=O)cc1` | 4.591 |
| 67 | `CC(C)(C)C(=O)N1CCOCC1` | -7.409 |
| 68 | `O=C(NCc1cc(F)cc(Br)c1)C1COCCN1` (centres undefined) | 9.284 |
| 69 | `O=C(NCC1CCS(=O)(=O)CC1)c1cc2sccc2[nH]1` | -2.262 |
| 70 | `CC[C@H](O)COc1ccc(C(=O)NCC(F)(F)F)cc1` | 9.461 |
| 71 | `CC(C(=O)NCc1ccc2c(c1)OCCO2)S(C)(=O)=O` (centres undefined) | 2.303 |

8 of the entries, repeated:

Compound,percent effect
CCN(CC)CCOC1CCNC1 (centres undefined),16.27
O=C(NCc1cc(F)cc(Br)c1)C1COCCN1 (centres undefined),9.284
N#Cc1ncn(CC(N)=O)n1,-4.702
CC(C)COCCN(C)CC1CCS(=O)(=O)C1 (centres undefined),0.3302
CN1CCC(CNC(=O)COc2cccnc2)C1 (centres undefined),-15.97
O=C(NCC1CCS(=O)(=O)CC1)c1cc2sccc2[nH]1,-2.262
c1nnc(C2CC2)n1C1CCNCC1,-12.51
O=C(Cc1cccc(O)c1)NCCN1CC=CC1,-7.848